± gives the standard deviation of the averaged measurements. Values are relative to the signal before dosing, not to a vehicle control; the signal also falls without drug.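 Fibroblast labels name human fibroblasts: mostly primary ones from tissues such as uterus (C12385, HUF), lung (H6013), bone (Hs27A), adrenal (HADF) and skin (WS1), plus mammary HMF and breast cancer-associated Hs343T. The cancer cells are basal-like or mesenchymal-like triple-negative breast cancer lines. The paper calls a changed response a hit when it shifts by more than 3x the replicate standard deviation. The tissue of the other fibroblasts is not given here.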
Tested on: BT20
Assay: relative JC-1 red fluorescence (viability) vs pre-drug, coculture with fibroblast (fraction); higher = more viable cancer cells
Conditions: 10 µM
Procedure: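 JC-1 labelled TNBC cells cocultured 1:1 (1,500 cells each) with CellTrace Violet stained primary or stromal fibroblasts in 384-well plates in FluoroBrite medium, treated with one of 42 anticancer drugs at 0.1, 1, 10 or 100 uM. JC-1 red fluorescence (mitochondrial integrity in cancer cells only) was read by plate reader every 8 h for 72 h. Values are normalised to each well's pre-drug value. The stock of one drug was tenfold lower, so its dose labels may be too high.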

C#Cc1cccc(Nc2ncnc3cc(OCCOC)c(OCCOC)cc23)c1 [Erlotinib]
relative JC-1 red fluorescence (8 h, coculture fibroblast: C12385): 0.907 ± 0.0097
relative JC-1 red fluorescence (8 h, coculture fibroblast: H6013): 0.95 ± 0.022
relative JC-1 red fluorescence (8 h, coculture fibroblast: H6019): 0.862 ± 0.03
relative JC-1 red fluorescence (8 h, coculture fibroblast: H6076): 0.874 ± 0.14
relative JC-1 red fluorescence (8 h, coculture fibroblast: H6231): 0.72 ± 0.024
relative JC-1 red fluorescence (8 h, coculture fibroblast: HADF): 0.786 ± 0.11
relative JC-1 red fluorescence (8 h, coculture fibroblast: HCFa): 0.95 ± 0.065
relative JC-1 red fluorescence (8 h, coculture fibroblast: HCPF): 0.758 ± 0.014
relative JC-1 red fluorescence (8 h, coculture fibroblast: HHSteC): 0.926 ± 0.008
relative JC-1 red fluorescence (8 h, coculture fibroblast: HMF): 0.86 ± 0.065
relative JC-1 red fluorescence (8 h, coculture fibroblast: HPFa): 0.953 ± 0.045
relative JC-1 red fluorescence (8 h, coculture fibroblast: HUF): 0.915 ± 0.015
relative JC-1 red fluorescence (8 h, coculture fibroblast: Hs5): 0.848 ± 0.2
relative JC-1 red fluorescence (8 h, coculture fibroblast: Hs27A): 0.866 ± 0.07
relative JC-1 red fluorescence (8 h, coculture fibroblast: Hs343T): 0.853 ± 0.082
relative JC-1 red fluorescence (8 h, coculture fibroblast: WS1): 0.8675 ± 0.0067
relative JC-1 red fluorescence (16 h, coculture fibroblast: C12385): 0.835 ± 0.015
relative JC-1 red fluorescence (16 h, coculture fibroblast: H6013): 0.904 ± 0.034
relative JC-1 red fluorescence (16 h, coculture fibroblast: H6019): 0.8 ± 0.045
relative JC-1 red fluorescence (16 h, coculture fibroblast: H6076): 0.904 ± 0.011
relative JC-1 red fluorescence (16 h, coculture fibroblast: H6231): 0.9666 ± 0.0041
relative JC-1 red fluorescence (16 h, coculture fibroblast: HADF): 0.9625 ± 0.0051
relative JC-1 red fluorescence (16 h, coculture fibroblast: HCFa): 0.93 ± 0.063
relative JC-1 red fluorescence (16 h, coculture fibroblast: HCPF): 0.9425 ± 0.00038
relative JC-1 red fluorescence (16 h, coculture fibroblast: HHSteC): 0.892 ± 0.019
relative JC-1 red fluorescence (16 h, coculture fibroblast: HMF): 0.931 ± 0.022
relative JC-1 red fluorescence (16 h, coculture fibroblast: HPFa): 0.88 ± 0.068
relative JC-1 red fluorescence (16 h, coculture fibroblast: HUF): 0.864 ± 0.047
relative JC-1 red fluorescence (16 h, coculture fibroblast: Hs5): 0.934 ± 0.042
relative JC-1 red fluorescence (16 h, coculture fibroblast: Hs27A): 0.754 ± 0.017
relative JC-1 red fluorescence (16 h, coculture fibroblast: Hs343T): 0.931 ± 0.043
relative JC-1 red fluorescence (16 h, coculture fibroblast: WS1): 0.8145 ± 0.0079
relative JC-1 red fluorescence (24 h, coculture fibroblast: C12385): 0.777 ± 0.013
relative JC-1 red fluorescence (24 h, coculture fibroblast: H6013): 0.878 ± 0.041
relative JC-1 red fluorescence (24 h, coculture fibroblast: H6019): 0.787 ± 0.049
relative JC-1 red fluorescence (24 h, coculture fibroblast: H6076): 0.896 ± 0.059
relative JC-1 red fluorescence (24 h, coculture fibroblast: H6231): 0.855 ± 0.046
relative JC-1 red fluorescence (24 h, coculture fibroblast: HADF): 0.907 ± 0.048
relative JC-1 red fluorescence (24 h, coculture fibroblast: HCFa): 0.914 ± 0.024
relative JC-1 red fluorescence (24 h, coculture fibroblast: HCPF): 0.8542 ± 0.0045
relative JC-1 red fluorescence (24 h, coculture fibroblast: HHSteC): 0.888 ± 0.046
relative JC-1 red fluorescence (24 h, coculture fibroblast: HMF): 0.8311 ± 0.0055
relative JC-1 red fluorescence (24 h, coculture fibroblast: HPFa): 0.873 ± 0.069
relative JC-1 red fluorescence (24 h, coculture fibroblast: HUF): 0.829 ± 0.077
relative JC-1 red fluorescence (24 h, coculture fibroblast: Hs5): 0.856 ± 0.032
relative JC-1 red fluorescence (24 h, coculture fibroblast: Hs27A): 0.82 ± 0.049
relative JC-1 red fluorescence (24 h, coculture fibroblast: Hs343T): 0.811 ± 0.024
relative JC-1 red fluorescence (24 h, coculture fibroblast: WS1): 0.835 ± 0.016
relative JC-1 red fluorescence (32 h, coculture fibroblast: C12385): 0.715 ± 0.011
relative JC-1 red fluorescence (32 h, coculture fibroblast: H6013): 0.86 ± 0.035
relative JC-1 red fluorescence (32 h, coculture fibroblast: H6019): 0.747 ± 0.059
relative JC-1 red fluorescence (32 h, coculture fibroblast: H6076): 0.871 ± 0.041
relative JC-1 red fluorescence (32 h, coculture fibroblast: H6231): 0.792 ± 0.056
relative JC-1 red fluorescence (32 h, coculture fibroblast: HADF): 0.916 ± 0.063
relative JC-1 red fluorescence (32 h, coculture fibroblast: HCFa): 0.898 ± 0.071
relative JC-1 red fluorescence (32 h, coculture fibroblast: HCPF): 0.815 ± 0.015
relative JC-1 red fluorescence (32 h, coculture fibroblast: HHSteC): 0.837 ± 0.057
relative JC-1 red fluorescence (32 h, coculture fibroblast: HMF): 0.7713 ± 0.0069
relative JC-1 red fluorescence (32 h, coculture fibroblast: HPFa): 0.808 ± 0.058
relative JC-1 red fluorescence (32 h, coculture fibroblast: HUF): 0.757 ± 0.084
relative JC-1 red fluorescence (32 h, coculture fibroblast: Hs5): 0.806 ± 0.046
relative JC-1 red fluorescence (32 h, coculture fibroblast: Hs27A): 0.84 ± 0.13
relative JC-1 red fluorescence (32 h, coculture fibroblast: Hs343T): 0.759 ± 0.026
relative JC-1 red fluorescence (32 h, coculture fibroblast: WS1): 0.823 ± 0.018
relative JC-1 red fluorescence (40 h, coculture fibroblast: C12385): 0.667 ± 0.018
relative JC-1 red fluorescence (40 h, coculture fibroblast: H6013): 0.844 ± 0.035
relative JC-1 red fluorescence (40 h, coculture fibroblast: H6019): 0.732 ± 0.074
relative JC-1 red fluorescence (40 h, coculture fibroblast: H6076): 0.832 ± 0.018
relative JC-1 red fluorescence (40 h, coculture fibroblast: H6231): 0.748 ± 0.067
relative JC-1 red fluorescence (40 h, coculture fibroblast: HADF): 0.903 ± 0.087
relative JC-1 red fluorescence (40 h, coculture fibroblast: HCFa): 0.893 ± 0.081
relative JC-1 red fluorescence (40 h, coculture fibroblast: HCPF): 0.742 ± 0.027
relative JC-1 red fluorescence (40 h, coculture fibroblast: HHSteC): 0.815 ± 0.08
relative JC-1 red fluorescence (40 h, coculture fibroblast: HMF): 0.726 ± 0.0088
relative JC-1 red fluorescence (40 h, coculture fibroblast: HPFa): 0.781 ± 0.044
relative JC-1 red fluorescence (40 h, coculture fibroblast: HUF): 0.703 ± 0.087
relative JC-1 red fluorescence (40 h, coculture fibroblast: Hs5): 0.763 ± 0.04
relative JC-1 red fluorescence (40 h, coculture fibroblast: Hs27A): 0.881 ± 0.038
relative JC-1 red fluorescence (40 h, coculture fibroblast: Hs343T): 0.713 ± 0.028
relative JC-1 red fluorescence (40 h, coculture fibroblast: WS1): 0.8272 ± 0.0056
relative JC-1 red fluorescence (48 h, coculture fibroblast: C12385): 0.6296 ± 0.0048
relative JC-1 red fluorescence (48 h, coculture fibroblast: H6013): 0.837 ± 0.043
relative JC-1 red fluorescence (48 h, coculture fibroblast: H6019): 0.724 ± 0.074
relative JC-1 red fluorescence (48 h, coculture fibroblast: H6076): 0.7951 ± 0.0037
relative JC-1 red fluorescence (48 h, coculture fibroblast: H6231): 0.702 ± 0.059
relative JC-1 red fluorescence (48 h, coculture fibroblast: HADF): 0.876 ± 0.1
relative JC-1 red fluorescence (48 h, coculture fibroblast: HCFa): 0.898 ± 0.085
relative JC-1 red fluorescence (48 h, coculture fibroblast: HCPF): 0.702 ± 0.013
relative JC-1 red fluorescence (48 h, coculture fibroblast: HHSteC): 0.803 ± 0.098
relative JC-1 red fluorescence (48 h, coculture fibroblast: HMF): 0.687 ± 0.012
relative JC-1 red fluorescence (48 h, coculture fibroblast: HPFa): 0.75 ± 0.043
relative JC-1 red fluorescence (48 h, coculture fibroblast: HUF): 0.661 ± 0.088
relative JC-1 red fluorescence (48 h, coculture fibroblast: Hs5): 0.726 ± 0.023
relative JC-1 red fluorescence (48 h, coculture fibroblast: Hs27A): 0.794 ± 0.14
relative JC-1 red fluorescence (48 h, coculture fibroblast: Hs343T): 0.666 ± 0.035
relative JC-1 red fluorescence (48 h, coculture fibroblast: WS1): 0.8351 ± 0.0032
relative JC-1 red fluorescence (56 h, coculture fibroblast: C12385): 0.6077 ± 0.004
relative JC-1 red fluorescence (56 h, coculture fibroblast: H6013): 0.837 ± 0.036
relative JC-1 red fluorescence (56 h, coculture fibroblast: H6019): 0.722 ± 0.072
relative JC-1 red fluorescence (56 h, coculture fibroblast: H6076): 0.777 ± 0.045
relative JC-1 red fluorescence (56 h, coculture fibroblast: H6231): 0.67 ± 0.063
relative JC-1 red fluorescence (56 h, coculture fibroblast: HADF): 0.872 ± 0.1
relative JC-1 red fluorescence (56 h, coculture fibroblast: HCFa): 0.883 ± 0.074
relative JC-1 red fluorescence (56 h, coculture fibroblast: HCPF): 0.656 ± 0.0098
relative JC-1 red fluorescence (56 h, coculture fibroblast: HHSteC): 0.774 ± 0.11
relative JC-1 red fluorescence (56 h, coculture fibroblast: HMF): 0.6543 ± 0.0044
relative JC-1 red fluorescence (56 h, coculture fibroblast: HPFa): 0.724 ± 0.04
relative JC-1 red fluorescence (56 h, coculture fibroblast: HUF): 0.635 ± 0.089
relative JC-1 red fluorescence (56 h, coculture fibroblast: Hs5): 0.689 ± 0.0099
relative JC-1 red fluorescence (56 h, coculture fibroblast: Hs27A): 0.838 ± 0.091
relative JC-1 red fluorescence (56 h, coculture fibroblast: Hs343T): 0.615 ± 0.037
relative JC-1 red fluorescence (56 h, coculture fibroblast: WS1): 0.854 ± 0.016
relative JC-1 red fluorescence (64 h, coculture fibroblast: C12385): 0.587 ± 0.0072
relative JC-1 red fluorescence (64 h, coculture fibroblast: H6013): 0.817 ± 0.035
relative JC-1 red fluorescence (64 h, coculture fibroblast: H6019): 0.719 ± 0.07
relative JC-1 red fluorescence (64 h, coculture fibroblast: H6076): 0.781 ± 0.057
relative JC-1 red fluorescence (64 h, coculture fibroblast: H6231): 0.637 ± 0.067
relative JC-1 red fluorescence (64 h, coculture fibroblast: HADF): 0.863 ± 0.13
relative JC-1 red fluorescence (64 h, coculture fibroblast: HCFa): 0.88 ± 0.092
relative JC-1 red fluorescence (64 h, coculture fibroblast: HCPF): 0.627 ± 0.0078
relative JC-1 red fluorescence (64 h, coculture fibroblast: HHSteC): 0.761 ± 0.13
relative JC-1 red fluorescence (64 h, coculture fibroblast: HMF): 0.6242 ± 0.0046
relative JC-1 red fluorescence (64 h, coculture fibroblast: HPFa): 0.688 ± 0.038
relative JC-1 red fluorescence (64 h, coculture fibroblast: HUF): 0.615 ± 0.091
relative JC-1 red fluorescence (64 h, coculture fibroblast: Hs5): 0.656 ± 0.015
relative JC-1 red fluorescence (64 h, coculture fibroblast: Hs27A): 0.7732 ± 0.006
relative JC-1 red fluorescence (64 h, coculture fibroblast: Hs343T): 0.601 ± 0.04
relative JC-1 red fluorescence (64 h, coculture fibroblast: WS1): 0.865 ± 0.021
relative JC-1 red fluorescence (72 h, coculture fibroblast: C12385): 0.5711 ± 0.0057
relative JC-1 red fluorescence (72 h, coculture fibroblast: H6013): 0.807 ± 0.028
relative JC-1 red fluorescence (72 h, coculture fibroblast: H6019): 0.711 ± 0.067
relative JC-1 red fluorescence (72 h, coculture fibroblast: H6076): 0.769 ± 0.069
relative JC-1 red fluorescence (72 h, coculture fibroblast: H6231): 0.607 ± 0.063
relative JC-1 red fluorescence (72 h, coculture fibroblast: HADF): 0.834 ± 0.13
relative JC-1 red fluorescence (72 h, coculture fibroblast: HCFa): 0.866 ± 0.097
relative JC-1 red fluorescence (72 h, coculture fibroblast: HCPF): 0.587 ± 0.012
relative JC-1 red fluorescence (72 h, coculture fibroblast: HHSteC): 0.751 ± 0.13
relative JC-1 red fluorescence (72 h, coculture fibroblast: HMF): 0.59297 ± 5.2e-05
relative JC-1 red fluorescence (72 h, coculture fibroblast: HPFa): 0.646 ± 0.035
relative JC-1 red fluorescence (72 h, coculture fibroblast: HUF): 0.593 ± 0.089
relative JC-1 red fluorescence (72 h, coculture fibroblast: Hs5): 0.636 ± 0.022
relative JC-1 red fluorescence (72 h, coculture fibroblast: Hs27A): 0.784 ± 0.027
relative JC-1 red fluorescence (72 h, coculture fibroblast: Hs343T): 0.565 ± 0.039
relative JC-1 red fluorescence (72 h, coculture fibroblast: WS1): 0.888 ± 0.022

Source: the supplement of paper PMC6078165
